Assay results: PubChem BioAssay AID1508600 (Functional Genomics Laboratory (NCATS/FGL), 2020)
Out of some 53,000 sequences screened, about 3,700 (7%) were called active.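 How the source made its calls: active means gene knockdowns whose robust z-score for IL-1 alpha signal is at least 2 or at most -2, so actives lie on both sides; inactive means the rest.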 This is one part of the list.

Experiment: Components of the Cytosolic LPS Sensing Pathway: Gene Identification via Genome-wide siRNA Screen;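 further: robust z of the log signal after scaling to non-targeting control siRNA wells of the plate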
Conditions: RAW264.7 macrophages, IL-1a HTRF, actives lie on both sides, screened at 100 nM (by protocol), cells primed 5 h with Pam3CSK4 first
In short: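 Knockdown: 100 nM siRNA, 48h, RAW264.7. Stimulation: Pam3CSK4 5 h, then LipidA via TransIT-TKO 24 h. Output: supernatant IL-1a HTRF, negative-control-normalized, log robust z-score; viability by CellTiter-Glo.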

Sequence	z-score
GCGAUCGAUGUCGUACUCUTT against Smg1	inactive: 0.432
GCACGCAGACAAAAUGGGCTT against Wdr63	inactive: -0.341
GCUUGGCUAUCAAAACUUCTT against Ccdc22	inactive: -0.00442
GGAAGAAGCUAGAACAGGATT against Add2	inactive: -0.143
GCAAGCAACGGUCAUUCUCTT against Slc10a6	inactive: 0.862
GGCAUUAGAGACAGACUGGTT against Acer3	inactive: -0.456
GGUAGUGACUGUGCUAUCGTT against Gpr35	inactive: -0.979
GGUGGCCGUGAAGAAGAUCTT against Mapk4	inactive: -0.902
GGUGGAACAGGCAGAAUUCTT against Syn2	inactive: 1.92
GCACUCCUGUCAUUCGUGUTT against Gnaq	inactive: -1.59
CCUCCUUAUCCAUAAUAUUTT against Slc35a3	inactive: 0.727
GGACUACUCGGAUUUAGCUTT against Lonp1	inactive: -0.318
GGACUCCUAUGUAGGUGAUTT against Actc1	inactive: -0.752
CCUCUGACCUAGUUUUUCUTT against Nav3	inactive: 1.02
GGCCAAAUAGCACUAAAGUTT against Ttll4	inactive: -0.0504
GCACGUCAGAAUCUCCAGATT against Pln	inactive: -0.669
GCUCCUGGUCUCAUUUACATT against Taf9b	inactive: -0.386
GGCUGCUAGCUUAUAUAAGTT against Med21	inactive: -0.472
GGGUACAGACGAUGUUUGATT against Unc45b	inactive: 0.347
GCCCUCUGUGAGUAGUAAUTT against Shroom3	inactive: 0.603
GGAUAGAUCCUUGAAAAAGTT against Tmprss7	inactive: 1.05
GGUUACCUGGGCAUGGGAATT against 4732465J04Rik	inactive: 0.341
GGUAUCAAGUAUGACCUAGTT against Lrrc8a	inactive: -1.2

Sequence	z-score
GGACUCUUUCAUAAGCAUATT against Etv5	inactive: -0.415
GGUGUUGGGCUACAAGGAUTT against Dmtn	inactive: 0.404
CGCGUAACUCCUAUGUAGUTT against G6pd2	inactive: 0.759
GGGAUAGCUCUAGUAUAUUTT against Slc24a2	inactive: -0.749
GGAAAGGUUGUUAUUGAUGTT against Psmd14	inactive: -0.552
ACCGUUUUUAAACCUCUGATT against Ociad2	inactive: -1.12
CGUCACUGAUGUGGCUUUUTT against Plpp6	inactive: 0.755
GGUCCAAGAGGAAAGACAATT against Adarb2	inactive: 0.67
CCUGGUCUAUAAGGUUUGUTT against Slc25a37	inactive: 1.13
CCUGGAUACCAAUGAUGAATT against Grk4	inactive: -0.137
GGAAGGGCAUCCACUUUGATT against Psd	inactive: -0.563
GGGAUAAGAGAGCAAUUAATT against Usp17la	inactive: -1.42
GGAAGAUUGAAAUAGGCGATT against Mecom	inactive: -1.25
CGAGCUAACAAACUUGAACTT against Foxn2	inactive: 0.144
CCCUGGAUGAAAAUGACAATT against Cdh24	inactive: 0.793
GGAAGAAUGUAAGUAUACCTT against Zscan12	inactive: 1.68
GGAUUUUUGUGAGUCUAAGTT against Sdr9c7	inactive: 0.257
GGCUGAGCUGCGCAACAAATT against Gas8	inactive: -0.00831
GGAGGAGGACUCAAUCUCATT against Hps5	inactive: 1.23
GGACAGAAAGGUACCCUUATT against Slc30a5	inactive: 0.461
CCAAUUGACGGUUUAUGUUTT against Scaper	inactive: -1.2
CCAAUGGUCAGGAGUGUAGTT against Prpsap2	inactive: -0.766
GUCUUCUCUGCCUGUCUGATT against Lce3c	inactive: -0.0986

Some of the entries so far, field by field.
GGAAGGGCAUCCACUUUGATT against Psd
  z-score: inactive: -0.563
CGAGCUAACAAACUUGAACTT against Foxn2
  z-score: inactive: 0.144
CCAAUUGACGGUUUAUGUUTT against Scaper
  z-score: inactive: -1.2

The list continues.

Sequence	z-score
GAAGGUGAAGUGCAGGAAGTT against Fxyd7	inactive: -0.081
GCCUUUGAUUUGAUUUCAUTT against Olfr1047	inactive: 0.896
GGUCGUCUUUUAAGAGUUUTT against Ccdc71l	active: 3.03
GGCUGACUUUCUGUCACAGTT against Olfr655	inactive: 1.03
GGAUAAUAGGAACAAUCUGTT against Sval1	inactive: 0.207
GGCAUGAAGUGAUCAAUAUTT against Gsto2	inactive: -0.112
GCCAAUGACCCAAAUUCUATT against Ppip5k1	inactive: 0.812
GGUUUGAAUUCAAGUUCAUTT against Klhl5	inactive: 0.616
GCAGUGUAAUGUGGCCUACTT against Rorc	inactive: 0.682
CCCAGAUGAACAAAUGACCTT against Tceanc	inactive: 0.582
GCCAAUGAGAGUAGGAAAGTT against Elovl3	inactive: 1.43
CCAAGUCUAAUGUUUACAATT against Slc38a7	inactive: -0.333
GGUGCAAGAUCAAGAACUGTT against C1ra	active: 2.78
GGAAGCUAAGAAGAUGGAGTT against Ripk4	inactive: 1.2
CCUAAAGCUUGGCAACCCATT against Vapb	inactive: -1.15
GGAGUUUGGCGAAGACCUATT against Ice1	inactive: -0.472
GGAUCUGACAUGUUGUAUATT against Fshr	inactive: -0.792
GGCUACAGCCGUCAAAGAUTT against R74862	inactive: -0.091
CCAUUGAGAUCAGCGACAUTT against Abtb2	inactive: -0.748
GGCAGUUUGUUAAUGAAUGTT against Pcsk1	inactive: -0.901
GGUAGAUUAGCUGAUCCCATT against 2310057J18Rik	inactive: -0.308
GCCGUAGUUAAGGUAUCUGTT against Btnl10	inactive: -1.82

Copied from the results shown (2 entries):
Sequence	z-score
GCCUUUGAUUUGAUUUCAUTT against Olfr1047	inactive: 0.896
GGUCGUCUUUUAAGAGUUUTT against Ccdc71l	active: 3.03
